Results from PMC7862700.
The list shows a part of the results, in another mix than the full data. At the low end of the ranking the order means little.

Chains of the proteins cited; added tags and fusions are not shown. Lines headed by an entry give the natural chain unless they say otherwise; changes in a name come on top.
UniProt Q9Y603: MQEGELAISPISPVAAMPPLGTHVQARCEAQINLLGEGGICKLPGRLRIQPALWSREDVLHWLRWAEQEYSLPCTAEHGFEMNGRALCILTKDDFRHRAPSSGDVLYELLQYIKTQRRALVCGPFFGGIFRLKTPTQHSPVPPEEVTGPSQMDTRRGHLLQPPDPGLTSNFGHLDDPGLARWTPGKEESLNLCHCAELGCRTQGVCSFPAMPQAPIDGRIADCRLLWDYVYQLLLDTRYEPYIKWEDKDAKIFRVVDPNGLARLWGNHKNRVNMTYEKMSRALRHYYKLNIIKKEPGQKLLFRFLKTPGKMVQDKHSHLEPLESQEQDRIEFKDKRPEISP
UniProt P41212: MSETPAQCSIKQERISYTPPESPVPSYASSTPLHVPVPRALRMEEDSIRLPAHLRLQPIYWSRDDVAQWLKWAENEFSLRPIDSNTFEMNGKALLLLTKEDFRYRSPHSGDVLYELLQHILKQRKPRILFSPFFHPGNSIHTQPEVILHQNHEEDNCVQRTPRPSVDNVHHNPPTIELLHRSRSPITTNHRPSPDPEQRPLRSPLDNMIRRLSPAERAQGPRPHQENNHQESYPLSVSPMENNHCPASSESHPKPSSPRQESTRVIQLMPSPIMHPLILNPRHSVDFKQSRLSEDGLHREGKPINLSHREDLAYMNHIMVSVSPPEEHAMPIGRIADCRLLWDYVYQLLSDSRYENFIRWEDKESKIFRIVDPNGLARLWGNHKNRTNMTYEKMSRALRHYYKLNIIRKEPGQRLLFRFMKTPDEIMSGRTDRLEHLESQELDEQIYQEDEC

What follows are sequences tested against T1, ELF3 (UniProt P78545) (assay: DAPPL (digital affinity profiling via proximity ligation, sequencing)). Conditions: 10 mM Tris-HCl pH 7.5, 50 mM NaCl, 1 mM DTT, 4% glycerol, room temperature, 30 min; GST-TFs on glutathione beads, 16-mer random dsDNA library, 0.1% …; high values mean tight binding; double strand, one strand shown; scale: fold enrichment (6-mer frequency, TF over GST control).
T1 sequence: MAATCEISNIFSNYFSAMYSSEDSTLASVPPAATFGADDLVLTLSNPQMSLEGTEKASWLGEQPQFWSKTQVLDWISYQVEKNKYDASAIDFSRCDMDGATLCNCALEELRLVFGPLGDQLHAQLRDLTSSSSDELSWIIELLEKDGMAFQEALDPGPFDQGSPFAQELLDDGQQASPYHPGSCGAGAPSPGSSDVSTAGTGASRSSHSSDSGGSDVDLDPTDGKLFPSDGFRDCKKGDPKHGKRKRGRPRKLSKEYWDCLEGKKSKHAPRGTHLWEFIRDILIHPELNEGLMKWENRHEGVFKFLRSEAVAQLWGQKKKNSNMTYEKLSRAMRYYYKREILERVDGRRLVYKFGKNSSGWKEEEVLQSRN
TCTCTG was tested, and the binding signal was 1.37.
Work on ACATGG yielded a binding signal of 1.17.
With ATGAAA the binding signal was 1.19.
Sequence CGACGA has a binding signal of 0.977.
ATACCA gave a binding signal of 0.99.
GCCTAT gave a binding signal of 0.868.
In the case of ATAAAC, the binding signal is reported as 1.13.
GTTCTT gave a binding signal of 1.31.
TAGGTT gave a binding signal of 1.14.
In the case of CATGAA, the binding signal is reported as 1.15.
Work on CGAGCT yielded a binding signal of 0.982.
Work on GAAAAG yielded a binding signal of 0.986.
For GGTCCC, the binding signal was 0.961.
For GGTTTA, the binding signal was 1.13.
AAAAGG showed a binding signal of 1.2.
In the case of TGAACT, the binding signal is reported as 1.11.
GTCTTC showed a binding signal of 1.46.
For TGCCAA, the binding signal was 1.17.
Work on ATTGCC yielded a binding signal of 1.24.
ATCATA gave a binding signal of 0.994.
Work on CTGTAA yielded a binding signal of 0.939.
ATCATT showed a binding signal of 1.05.
TAGCGG showed a binding signal of 1.02.
CTAGCT was tested, and the binding signal was 1.07.
AAATTT gave a binding signal of 1.43.
With GGCTCT the binding signal was 1.44.
For TTGAAC, the binding signal was 0.932.
CCCTCC showed a binding signal of 1.27.
GATACT showed a binding signal of 0.98.
In the case of CTCAGA, the binding signal is reported as 0.991.
CGCTAC gave a binding signal of 1.24.
In the case of GAACAC, the binding signal is reported as 1.13.
TTGCGC showed a binding signal of 0.94.
CGATAA was tested, and the binding signal was 0.947.
With AAAATT the binding signal was 1.43.
GATGCC was tested, and the binding signal was 1.4.
Work on ATCTTT yielded a binding signal of 1.17.
With TGTGGA the binding signal was 1.
TACGCC was tested, and the binding signal was 1.14.

These sequences were tested against ETV7 (UniProt Q9Y603) in the same assay as above. Conditions: 10 mM Tris-HCl pH 7.5, 50 mM NaCl, 1 mM DTT, 4% glycerol, room temperature, 30 min; GST-TFs on glutathione beads, 16-mer random dsDNA library, 0.1% …; high values mean tight binding; double strand, one strand shown; scale: fold enrichment (6-mer frequency, TF over GST control).
With TCTCTG the binding signal was 1.29.
For ACATGG, the binding signal was 1.08.
ATGAAA was tested, and the binding signal was 1.07.
With CGACGA the binding signal was 1.11.
Sequence ATACCA has a binding signal of 1.02.
GCCTAT showed a binding signal of 1.24.
Work on ATAAAC yielded a binding signal of 1.05.
Work on GTTCTT yielded a binding signal of 1.18.
In the case of TAGGTT, the binding signal is reported as 0.945.
CATGAA was tested, and the binding signal was 0.96.
With CGAGCT the binding signal was 1.02.
In the case of GAAAAG, the binding signal is reported as 1.13.
With GGTCCC the binding signal was 1.15.
GGTTTA was tested, and the binding signal was 1.15.
With AAAAGG the binding signal was 1.16.
Sequence TGAACT has a binding signal of 1.21.
Work on GTCTTC yielded a binding signal of 1.14.
Sequence TGCCAA has a binding signal of 1.01.
With ATTGCC the binding signal was 1.22.
ATCATA gave a binding signal of 1.1.
CTGTAA showed a binding signal of 0.896.
ATCATT was tested, and the binding signal was 1.01.
In the case of TAGCGG, the binding signal is reported as 1.12.
With CTAGCT the binding signal was 1.33.
In the case of AAATTT, the binding signal is reported as 1.36.
Sequence GGCTCT has a binding signal of 1.44.
Sequence TTGAAC has a binding signal of 1.18.
CCCTCC gave a binding signal of 1.37.
For GATACT, the binding signal was 0.983.
In the case of CTCAGA, the binding signal is reported as 0.966.
In the case of CGCTAC, the binding signal is reported as 1.2.
GAACAC gave a binding signal of 1.15.
Work on TTGCGC yielded a binding signal of 1.12.
CGATAA showed a binding signal of 1.08.
Sequence AAAATT has a binding signal of 1.5.
GATGCC showed a binding signal of 1.27.
For ATCTTT, the binding signal was 1.13.
With TGTGGA the binding signal was 0.879.
Sequence TACGCC has a binding signal of 1.19.

Each sequence was assayed against ETV6 (UniProt P41212) in the same assay as above. Conditions: 10 mM Tris-HCl pH 7.5, 50 mM NaCl, 1 mM DTT, 4% glycerol, room temperature, 30 min; GST-TFs on glutathione beads, 16-mer random dsDNA library, 0.1% …; high values mean tight binding; double strand, one strand shown; scale: fold enrichment (6-mer frequency, TF over GST control).
For GCCTAT, the binding signal was 1.19.
In the case of ATAAAC, the binding signal is reported as 1.19.
CATGAA gave a binding signal of 0.943.
GAAAAG gave a binding signal of 1.18.
For GGTCCC, the binding signal was 1.09.
Work on TGAACT yielded a binding signal of 1.22.
For ATTGCC, the binding signal was 1.26.
Work on ATCATA yielded a binding signal of 1.1.
For ATCATT, the binding signal was 1.06.
TAGCGG gave a binding signal of 1.12.
TTGAAC was tested, and the binding signal was 1.1.
In the case of GATACT, the binding signal is reported as 1.07.
With CGCTAC the binding signal was 1.27.
With ATCTTT the binding signal was 1.2.
